Consider 17 compounds from PubChem BioAssay AID463183 (Sanford-Burnham Center for Chemical Genomics, 2010).

This is one part of the list. The main result of the screen is listed elsewhere. These columns were measured beside it and carry no call. Compounds called inactive in the main read-out are mostly missing here.

The assay in a line: hepatocyte lipid droplet accumulation inhibitors, confirmation, imaging, AML12 mouse hepatocytes, single concentration, high-content (AID 463183).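 Further: cells counted after overnight compound exposure.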 The settings on record: BODIPY lipid droplet imaging, measured here: cell count, cytotoxicity, at 5.2 µM, droplets induced with 100 µM oleic acid.
For `COc1ccc(OC)c(/C=C/C(=O)N(C)CC(=O)Nc2ccc(C)cc2)c1`, the cell count stood at 1580 cells. Next, `Cc1cc(NC(=O)c2sccc2C)n(-c2nc3ccccc3[nH]2)n1`: 1760 cells; `Cc1ccc(S(=O)(=O)NCc2ccc(C(=O)NC3CC3)cc2)cc1`: 1630 cells. Next, `COc1ccc(C(C)=O)cc1CSc1nnc(Nc2ccc(C)cc2C)s1`: 1580 cells; `O=C(O)CCCC(=O)Nc1ccc(Br)cc1C(=O)O`: 1680 cells. The compound `CCOc1cc(N2CCOCC2)c(OCC)cc1NC(=O)COC(=O)c1cccc2ccccc12` yielded a cell count of 1540 cells. `CCNC(=S)N1CCc2cc(OC)c(OC)cc2C1COc1ccccc1OC` (configuration not stated) had a cell count of 1580 cells. In the case of `O=C(Cn1nc(-c2cccc(Cl)c2)ccc1=O)Nc1ccc(C(=O)NC2CC2)cc1`, the cell count was 1640 cells. `COc1ccccc1NS(=O)(=O)c1cc(NC(=O)c2cc3ccccc3oc2=O)ccc1C` showed a cell count of 1600 cells. Regarding `CC(C)COc1cccc(-c2cc(C(=O)Nc3ccon3)c3ccccc3n2)c1`, the cell count is 1640 cells. Take `CCOC(=O)c1ccc(NC(=O)CSc2nc3c(c(=O)n2-c2ccccc2OC)SCC3)cc1`: the cell count worked out at 1680 cells.

In turn, `CCOc1ccc(CCNC(=O)C2(c3ccccc3)CC2)cc1OCC` yielded a cell count of 1590 cells. Consider `CCOC(=O)c1ccc(NC(=O)CN(Cc2ccc(Cl)cc2)S(C)(=O)=O)cc1`, for which the cell count was 1590 cells.

Regarding `COc1c(C)cc(Br)cc1C(=O)Nc1cccc(NC(=O)c2ccco2)c1`, the cell count stood at 1640 cells.

In turn, `CCOc1cc(C(=O)Nc2ccc(N3CCN(S(C)(=O)=O)CC3)cc2)cc(OCC)c1OCC` displayed a cell count of 1520 cells. To `CCOc1ccc(CCNC(=O)CN2CCN(Cc3ccc(F)cc3)C2=O)cc1OCC` belongs 1580 cells; to `Cc1oc2ccc(OCc3ccc(F)cc3Cl)cc2c1C(=O)O`, 1620 cells.
